Screening data, single-dose tests

The chains behind the UniProt entries cited, without tags or fusion partners. Residues count along the entry.
UniProt P9WFT3, whole entry: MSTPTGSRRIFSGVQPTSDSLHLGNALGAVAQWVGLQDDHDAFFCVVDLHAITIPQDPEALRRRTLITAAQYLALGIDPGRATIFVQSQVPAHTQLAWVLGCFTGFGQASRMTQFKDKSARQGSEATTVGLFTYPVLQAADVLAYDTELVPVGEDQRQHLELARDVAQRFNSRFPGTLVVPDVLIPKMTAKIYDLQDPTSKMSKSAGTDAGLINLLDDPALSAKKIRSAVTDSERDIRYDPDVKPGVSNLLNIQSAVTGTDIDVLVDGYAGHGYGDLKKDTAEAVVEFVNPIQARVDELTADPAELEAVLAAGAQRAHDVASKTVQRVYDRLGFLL
UniProt I6X8D2, whole entry: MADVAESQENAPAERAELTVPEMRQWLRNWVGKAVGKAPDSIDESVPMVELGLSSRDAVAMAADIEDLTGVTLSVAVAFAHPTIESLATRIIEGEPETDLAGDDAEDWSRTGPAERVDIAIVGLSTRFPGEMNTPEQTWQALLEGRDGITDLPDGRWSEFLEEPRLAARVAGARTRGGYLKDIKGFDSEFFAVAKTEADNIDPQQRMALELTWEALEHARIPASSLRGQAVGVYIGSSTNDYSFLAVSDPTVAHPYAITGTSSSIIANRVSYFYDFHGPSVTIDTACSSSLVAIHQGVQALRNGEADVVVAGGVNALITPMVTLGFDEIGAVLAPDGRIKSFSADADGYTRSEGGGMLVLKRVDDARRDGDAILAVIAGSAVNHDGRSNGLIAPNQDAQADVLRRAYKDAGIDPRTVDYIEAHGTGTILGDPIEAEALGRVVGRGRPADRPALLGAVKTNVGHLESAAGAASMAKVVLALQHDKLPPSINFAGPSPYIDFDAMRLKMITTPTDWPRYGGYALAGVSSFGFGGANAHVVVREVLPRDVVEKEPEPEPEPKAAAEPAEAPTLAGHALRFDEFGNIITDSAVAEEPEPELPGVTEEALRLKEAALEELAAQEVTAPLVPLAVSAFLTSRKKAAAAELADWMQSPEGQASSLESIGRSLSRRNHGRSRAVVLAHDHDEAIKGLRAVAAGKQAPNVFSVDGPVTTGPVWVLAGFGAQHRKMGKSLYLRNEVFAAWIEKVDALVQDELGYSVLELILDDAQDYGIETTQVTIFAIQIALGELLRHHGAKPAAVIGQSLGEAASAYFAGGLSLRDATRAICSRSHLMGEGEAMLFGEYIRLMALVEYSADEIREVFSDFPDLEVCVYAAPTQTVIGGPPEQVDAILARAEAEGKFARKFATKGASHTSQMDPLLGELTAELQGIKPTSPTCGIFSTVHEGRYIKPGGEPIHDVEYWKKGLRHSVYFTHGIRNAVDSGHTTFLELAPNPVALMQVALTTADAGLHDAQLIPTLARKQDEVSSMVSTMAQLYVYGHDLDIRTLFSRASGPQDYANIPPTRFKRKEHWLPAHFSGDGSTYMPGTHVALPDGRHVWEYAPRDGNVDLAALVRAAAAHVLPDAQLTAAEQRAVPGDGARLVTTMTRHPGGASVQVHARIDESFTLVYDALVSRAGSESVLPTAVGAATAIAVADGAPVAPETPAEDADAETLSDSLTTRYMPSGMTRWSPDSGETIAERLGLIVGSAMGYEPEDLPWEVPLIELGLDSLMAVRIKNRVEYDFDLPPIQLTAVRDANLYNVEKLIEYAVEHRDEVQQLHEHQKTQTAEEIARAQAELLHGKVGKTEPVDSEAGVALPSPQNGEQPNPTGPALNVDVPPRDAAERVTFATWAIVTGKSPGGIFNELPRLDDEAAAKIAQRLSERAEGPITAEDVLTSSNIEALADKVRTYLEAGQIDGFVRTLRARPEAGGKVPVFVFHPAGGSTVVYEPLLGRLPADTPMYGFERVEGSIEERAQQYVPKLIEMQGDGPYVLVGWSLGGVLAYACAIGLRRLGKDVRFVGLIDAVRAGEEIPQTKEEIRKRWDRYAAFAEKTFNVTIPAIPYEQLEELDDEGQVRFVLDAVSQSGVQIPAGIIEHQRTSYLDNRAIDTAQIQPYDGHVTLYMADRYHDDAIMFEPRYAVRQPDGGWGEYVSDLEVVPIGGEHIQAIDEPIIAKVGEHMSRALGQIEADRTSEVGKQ
UniProt A4I591, 1-473: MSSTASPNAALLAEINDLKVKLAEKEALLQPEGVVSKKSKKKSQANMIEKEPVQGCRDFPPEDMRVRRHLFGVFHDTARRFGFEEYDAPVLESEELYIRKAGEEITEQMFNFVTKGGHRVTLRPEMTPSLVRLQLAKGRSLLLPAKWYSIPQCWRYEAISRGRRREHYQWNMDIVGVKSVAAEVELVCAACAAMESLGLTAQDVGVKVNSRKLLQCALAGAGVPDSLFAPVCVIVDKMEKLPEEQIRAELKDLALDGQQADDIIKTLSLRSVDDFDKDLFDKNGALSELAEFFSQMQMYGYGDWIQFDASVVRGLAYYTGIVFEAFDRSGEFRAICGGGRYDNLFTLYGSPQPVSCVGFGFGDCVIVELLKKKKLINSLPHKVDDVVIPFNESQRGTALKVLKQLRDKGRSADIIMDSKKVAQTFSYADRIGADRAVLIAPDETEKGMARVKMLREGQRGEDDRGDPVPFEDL
UniProt Q8IDJ8, 1-583: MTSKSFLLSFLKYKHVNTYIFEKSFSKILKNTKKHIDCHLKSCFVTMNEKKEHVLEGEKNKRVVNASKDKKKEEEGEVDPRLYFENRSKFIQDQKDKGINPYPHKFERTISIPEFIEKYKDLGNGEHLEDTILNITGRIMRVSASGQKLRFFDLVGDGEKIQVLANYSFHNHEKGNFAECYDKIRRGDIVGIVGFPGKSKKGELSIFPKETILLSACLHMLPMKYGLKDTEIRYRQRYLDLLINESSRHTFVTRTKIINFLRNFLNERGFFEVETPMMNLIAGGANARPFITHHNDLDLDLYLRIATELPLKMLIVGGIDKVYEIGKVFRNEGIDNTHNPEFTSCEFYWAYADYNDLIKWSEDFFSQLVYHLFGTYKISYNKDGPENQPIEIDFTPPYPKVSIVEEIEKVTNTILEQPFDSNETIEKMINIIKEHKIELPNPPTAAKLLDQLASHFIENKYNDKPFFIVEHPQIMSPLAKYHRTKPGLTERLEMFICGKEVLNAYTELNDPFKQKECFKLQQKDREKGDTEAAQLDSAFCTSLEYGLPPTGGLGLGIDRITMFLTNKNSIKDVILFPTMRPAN

Data taken from ChEMBL document CHEMBL3988442, “University of Dundee, Small-Polar-MMV Screening Library” (2021).

MtTrpRS: 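Tryptophan-tRNA ligase, Mycobacterium tuberculosis (UniProt P9WFT3). Enzyme assay of tryptophanyl-tRNA synthetase; the read-out is not stated. Tested at 10 µM. Direction is not recorded; retested compounds ran higher, which suggests that high means inhibition. About 65,000 compounds were tested under these conditions; 0.098% (about 64) showed 50% or more at least once.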
Pks13 thioesterase: 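Polyketide synthase Pks13, Mycobacterium tuberculosis (UniProt I6X8D2). Enzyme assay of the thioesterase domain of polyketide synthase 13; the read-out is not stated. Concentration: 30 µM. Higher reads as stronger inhibition (inferred from which compounds were picked for retests). About 67,000 compounds were tested under these conditions; 0.46% (about 300) showed 50% or more at least once.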
LiHisRS: 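Histidine-tRNA ligase, Leishmania infantum (UniProt A4I591). Enzyme assay of histidyl-tRNA synthetase; the read-out is not stated. Concentration: 30 µM. Higher reads as stronger inhibition (inferred: compounds with an IC50 in retests scored well above the rest). The assay is labelled LdHisRS but filed under L. infantum. About 69,000 compounds were tested under these conditions; 0.6% (about 410) showed 50% or more at least once.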
PfKRS1: 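Lysine-tRNA ligase, Plasmodium falciparum 3D7 (UniProt Q8IDJ8). Enzyme assay of the cytosolic lysyl-tRNA synthetase in 384-well plates, read by luminescence. Tested at 30 µM. Higher reads as stronger inhibition, judged from the few compounds that gave an IC50. Of about 69,000 compounds tested this way, about 49 (0.071%) reached 50% or more in at least one test.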

Results are given as percent effect. The controls that fix the scale are not given in the record; negative values are as filed. Compounds were drawn at random from those tested, without regard to their results. A dash means the value is not listed here; it may have been measured.

| compound | MtTrpRS | Pks13 thioesterase | LiHisRS | PfKRS1 |
|---|---|---|---|---|
| `CCS(=O)(=O)Nc1cnn(Cc2cccc(C)c2)c1` | 2.913% | 0.06822% | 5.495% | 7.368% |
| `Cc1ccsc1C(=O)N1CC(C(=O)NC(C)C)C2(CCOCC2)C1` (centres undefined) | 1.195% | -34.26% | 22.12% | -1.293% |
| `CCc1cc(=O)[nH]c(-c2ccc(NC(C)CN3CCOCC3)nc2)n1` (centres undefined) | 0.08937% | -11.86% | 14.67% | 4.182% |
| `O=C(c1ccnnc1)N1C[C@H]2CCC[C@@H](OCc3cccnc3)[C@@H]2C1` | -3.417% | 8.088% | 0% | -4.34% |
| `COCCOc1ccnc(-c2noc([C@@H]3CCCN3C3CCC3)n2)c1` | 1.897% | -24.42% | 17.57% | -0.02522% |
| `CCO[C@@H]1CC[C@H]2[C@H]1OCCN2C(=O)c1ccc(C)o1` | -1.254% | -24.29% | 8.772% | 1.158% |
| `Cn1cc(CN2CCc3ncn(C)c3C2COCc2ccccc2)cn1` (centres undefined) | 0.4647% | -43.24% | 27.78% | 1.107% |
| `COc1ncc(NCc2cc(C#N)cs2)cc1C(N)=O` | -2.147% | 2.849% | -4.145% | -1.923% |
| `CC(C)c1cc(CNC(=O)NCc2cccc(N3CC=CC3)c2)on1` | 1.5% | 32.37% | 9.375% | -4.989% |
| `CCCN1CCN(Cc2cc(Cl)cc(Cl)c2)[C@H]2CS(=O)(=O)C[C@H]21` | 5.512% | -0.9996% | 34.29% | -5.692% |
| `O=C(COCC(F)(F)F)NS(=O)(=O)c1ccc2c(c1)OCCCO2` | 1.473% | -16.66% | 4.386% | 0.3572% |
| `COCCN(CCOC)C(=O)Nc1cc(C(F)(F)F)c[nH]c1=O` | -2.887% | -0.9754% | 11.4% | 1.879% |
| `CCC[C@@H]1CN(C(=O)c2cc3ccccc3cc2O)C[C@H]1N(C)C` | 3.649% | 5.847% | 77.14% | -5.003% |
| `CCOCC1CCCN(C(=O)NCc2ccc(-c3ccn[nH]3)cc2)C1` (centres undefined) | 16.07% | 56.43% | 6.25% | -1.141% |
| `CC(C)c1ncc2c(n1)CN(Cc1nc(-c3ccoc3)no1)CC2` | -2.43% | 9.284% | 40% | 3.214% |
| `O=S(=O)(C1CC1)N1CCOC2(CCCN(Cc3ccccn3)C2)C1` (centres undefined) | - | -0.2103% | 5.66% | 2.977% |
| `CCOC(=O)c1sc2ccsc2c1CNC(=O)CCOC` | 24.87% | -30.73% | 0% | -0.5558% |
| `CN1Cc2ccccc2CC2(CCN(Cc3nccn3C)CC2)C1=O` | - | 8.742% | 13.21% | 3.913% |
| `COc1ccc(CN2CCOC[C@H]2c2nc(-c3ccncc3)c[nH]2)cc1` | -2.67% | 0.6829% | 16.22% | -1.684% |
| `CCCN(C(=O)c1ccncc1)c1nc2c(s1)CCc1c-2cnn1C` | - | 13.69% | 82.29% | 16.18% |
| `CC(=O)NCCOc1cccc(Br)c1` | 1.795% | -21.23% | 4.301% | 3.16% |
| `CNC(=O)c1ccc2c(c1O)OC(C)(C)C2` | -1.93% | -8.69% | 19.51% | 1.144% |
| `CC(C)N1CCN(S(=O)(=O)c2ncn(C)c2Cl)CC1` | 3.439% | -28.39% | 26.03% | 5.393% |
| `CC1CCN(C(=O)c2cn(-c3cc(N4CCSCC4)ncn3)cn2)CC1` | -2.033% | -31.22% | 11.57% | 2.175% |
| `COCCN1CCCn2cnc(CN(C)C(C)C)c2C1` | 3.66% | -10.67% | 30% | 1.154% |
| `Cc1cccn2c(CNC(C)CO)cnc12` (centres undefined) | -1.286% | -14.23% | 6.452% | 3.197% |
| `CCCc1noc(C2CCN(C(=O)CCn3nc(C)cc3C)CC2)n1` | -0.3886% | -13.39% | 12.07% | 3.136% |
| `O=C(N1CCCC1)N1Cc2nccn2CC(Cn2ncccc2=O)C1` (centres undefined) | 1.862% | -14.9% | 9.722% | 2.335% |
| `Cc1nc(N2CCOCC2)nc2c1COCC21CCN(CC(C)C)C1` (centres undefined) | -3.823% | -22.01% | 22.37% | 6.026% |
| `O=C1Nc2ccccc2CN(CC2CCCC2)C12CCNC2` (centres undefined) | -4.235% | -11.42% | 23.45% | 1.19% |
| `COc1cc(OC)c(CNC(=O)NCC(=O)N2CCCC2)c(OC)c1` | 3.694% | -25.47% | 20% | 1.764% |
| `Cc1nc(CN2CCC(CNC(=O)Nc3ccccc3)CC2)oc1C` | -5.541% | -24.18% | 13.11% | 2.725% |
| `CC(=O)N1CCC(c2noc(C3CCC(=O)N3)n2)CC1` (centres undefined) | 6.034% | -20.24% | 13.42% | -0.8983% |
| `Cc1ccc2c(c1)C(NC1CCN(C)CC1)CCCO2` (centres undefined) | 11.44% | -7.766% | -1.724% | -0.3008% |

Some entries from above, unchanged:

O=C(COCC(F)(F)F)NS(=O)(=O)c1ccc2c(c1)OCCCO2 read MtTrpRS: 1.473%; Pks13 thioesterase: -16.66%; LiHisRS: 4.386%; PfKRS1: 0.3572%.
CNC(=O)c1ccc2c(c1O)OC(C)(C)C2 read MtTrpRS: -1.93%; Pks13 thioesterase: -8.69%; LiHisRS: 19.51%; PfKRS1: 1.144%.
Cn1cc(CN2CCc3ncn(C)c3C2COCc2ccccc2)cn1 (centres undefined) read MtTrpRS: 0.4647%; Pks13 thioesterase: -43.24%; LiHisRS: 27.78%; PfKRS1: 1.107%.
COCCN1CCCn2cnc(CN(C)C(C)C)c2C1 read MtTrpRS: 3.66%; Pks13 thioesterase: -10.67%; LiHisRS: 30%; PfKRS1: 1.154%.